Experimental data: PubChem BioAssay AID1904 (GNF, 2009)
The reagents shown are a selection, not the whole library. 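Lists only primary-screen hits; phenotype classes come from fitted traces, and the underlying luminescence values are not given.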 Reagents against one gene are numbered here. No sequences are given here.

- Purpose: 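Knockdowns that alter circadian period or oscillation amplitude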 (follow-up of hits)
- System: human U2OS osteosarcoma cells stably expressing a destabilised luciferase driven by the Bmal1 promoter
- Reagents: siRNA pair against human genes, 12.5 nM (two siRNAs, 0.5 pmol each, per well)
- Timing: about 3 days after transfection, then luminescence recorded for about 4 days
- Measurement: 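Bmal1 reporter light output measured every 2 hours over several days, detrended, then fitted to give period and amplitude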
- Call rule: 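Active when retesting with individual siRNAs reproduced the period or amplitude change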
- Meaning of the calls: active = confirmed by single siRNAs; inactive = not confirmed

FLJ20508 #1 | clock phenotype class = shorter clock period; seen with two independent siRNA pairs for the gene; confirmed with single siRNAs = phenotype reproduced by individual siRNAs; call = active
FLJ20508 #2 | clock phenotype class = shorter clock period; seen with two independent siRNA pairs for the gene; confirmed with single siRNAs = phenotype reproduced by individual siRNAs; call = active
PDE1B #1 | clock phenotype class = higher rhythm amplitude; seen with one siRNA pair in duplicate wells; confirmed with single siRNAs = phenotype reproduced by individual siRNAs; call = active
PDE1B #2 | clock phenotype class = higher rhythm amplitude; seen with one siRNA pair in duplicate wells; confirmed with single siRNAs = phenotype reproduced by individual siRNAs; call = active
DDB1 #1 | clock phenotype class = higher rhythm amplitude; seen with two independent siRNA pairs for the gene; confirmed with single siRNAs = phenotype reproduced by individual siRNAs; call = active
DDB1 #2 | clock phenotype class = higher rhythm amplitude; seen with two independent siRNA pairs for the gene; confirmed with single siRNAs = phenotype reproduced by individual siRNAs; call = active
SELO #1 | clock phenotype class = shorter clock period; seen with two independent siRNA pairs for the gene; confirmed with single siRNAs = phenotype reproduced by individual siRNAs; call = active
SELO #2 | clock phenotype class = shorter clock period; seen with two independent siRNA pairs for the gene; confirmed with single siRNAs = phenotype reproduced by individual siRNAs; call = active
FBXO16 #1 | clock phenotype class = shorter clock period; seen with one siRNA pair in duplicate wells; confirmed with single siRNAs = phenotype not reproduced by individual siRNAs; call = inconclusive
FBXO16 #2 | clock phenotype class = shorter clock period; seen with one siRNA pair in duplicate wells; confirmed with single siRNAs = phenotype not reproduced by individual siRNAs; call = inconclusive
SLC7A13 #1 | clock phenotype class = longer clock period; seen with two independent siRNA pairs for the gene; confirmed with single siRNAs = not retested with individual siRNAs
SLC7A13 #2 | clock phenotype class = longer clock period; seen with two independent siRNA pairs for the gene; confirmed with single siRNAs = not retested with individual siRNAs
LBX1 #1 | clock phenotype class = shorter clock period; seen with two independent siRNA pairs for the gene; confirmed with single siRNAs = phenotype reproduced by individual siRNAs; call = active
LBX1 #2 | clock phenotype class = shorter clock period; seen with two independent siRNA pairs for the gene; confirmed with single siRNAs = phenotype reproduced by individual siRNAs; call = active
DCLRE1A #1 | clock phenotype class = longer clock period; seen with two independent siRNA pairs for the gene; confirmed with single siRNAs = phenotype reproduced by individual siRNAs; call = active
DCLRE1A #2 | clock phenotype class = longer clock period; seen with two independent siRNA pairs for the gene; confirmed with single siRNAs = phenotype reproduced by individual siRNAs; call = active
EMR2 #1 | clock phenotype class = longer clock period; seen with two independent siRNA pairs for the gene; confirmed with single siRNAs = phenotype reproduced by individual siRNAs; call = active
EMR2 #2 | clock phenotype class = longer clock period; seen with two independent siRNA pairs for the gene; confirmed with single siRNAs = phenotype reproduced by individual siRNAs; call = active
CMYA4 #1 | clock phenotype class = longer clock period; seen with two independent siRNA pairs for the gene; confirmed with single siRNAs = phenotype reproduced by individual siRNAs; call = active
CMYA4 #2 | clock phenotype class = longer clock period; seen with two independent siRNA pairs for the gene; confirmed with single siRNAs = phenotype reproduced by individual siRNAs; call = active
ITGA2B #1 | clock phenotype class = longer clock period; seen with two independent siRNA pairs for the gene; confirmed with single siRNAs = phenotype reproduced by individual siRNAs; call = active
ITGA2B #2 | clock phenotype class = longer clock period; seen with two independent siRNA pairs for the gene; confirmed with single siRNAs = phenotype reproduced by individual siRNAs; call = active
MGC15763 #1 | clock phenotype class = longer clock period; seen with two independent siRNA pairs for the gene; confirmed with single siRNAs = not retested with individual siRNAs
MGC15763 #2 | clock phenotype class = longer clock period; seen with two independent siRNA pairs for the gene; confirmed with single siRNAs = not retested with individual siRNAs
BRCA2 #1 | clock phenotype class = higher rhythm amplitude; seen with two independent siRNA pairs for the gene; confirmed with single siRNAs = phenotype reproduced by individual siRNAs; call = active
BRCA2 #2 | clock phenotype class = higher rhythm amplitude; seen with two independent siRNA pairs for the gene; confirmed with single siRNAs = phenotype reproduced by individual siRNAs; call = active
CNNM4 #1 | clock phenotype class = shorter clock period; seen with two independent siRNA pairs for the gene; confirmed with single siRNAs = phenotype reproduced by individual siRNAs; call = active
CNNM4 #2 | clock phenotype class = shorter clock period; seen with two independent siRNA pairs for the gene; confirmed with single siRNAs = phenotype reproduced by individual siRNAs; call = active
NPC1L1 #1 | clock phenotype class = shorter clock period; seen with one siRNA pair in duplicate wells; confirmed with single siRNAs = phenotype reproduced by individual siRNAs; call = active
NPC1L1 #2 | clock phenotype class = shorter clock period; seen with one siRNA pair in duplicate wells; confirmed with single siRNAs = phenotype reproduced by individual siRNAs; call = active
CXorf15 #1 | clock phenotype class = longer clock period; seen with two independent siRNA pairs for the gene; confirmed with single siRNAs = phenotype reproduced by individual siRNAs; call = active
CXorf15 #2 | clock phenotype class = longer clock period; seen with two independent siRNA pairs for the gene; confirmed with single siRNAs = phenotype reproduced by individual siRNAs; call = active
PFKP #1 | clock phenotype class = shorter clock period; seen with one siRNA pair in duplicate wells; confirmed with single siRNAs = phenotype reproduced by individual siRNAs; call = active
PFKP #2 | clock phenotype class = shorter clock period; seen with one siRNA pair in duplicate wells; confirmed with single siRNAs = phenotype reproduced by individual siRNAs; call = active
GPR89 #1 | clock phenotype class = shorter clock period; seen with one siRNA pair in duplicate wells; confirmed with single siRNAs = phenotype reproduced by individual siRNAs; call = active
GPR89 #2 | clock phenotype class = shorter clock period; seen with one siRNA pair in duplicate wells; confirmed with single siRNAs = phenotype reproduced by individual siRNAs; call = active
PANK2 #1 | clock phenotype class = longer clock period; seen with two independent siRNA pairs for the gene; confirmed with single siRNAs = phenotype reproduced by individual siRNAs; call = active
PANK2 #2 | clock phenotype class = longer clock period; seen with two independent siRNA pairs for the gene; confirmed with single siRNAs = phenotype reproduced by individual siRNAs; call = active
TMEM2 #1 | clock phenotype class = longer clock period; seen with two independent siRNA pairs for the gene; confirmed with single siRNAs = phenotype reproduced by individual siRNAs; call = active
TMEM2 #2 | clock phenotype class = longer clock period; seen with two independent siRNA pairs for the gene; confirmed with single siRNAs = phenotype reproduced by individual siRNAs; call = active

Copied from the list.
Under “confirmed with single siRNAs”, GPR89 #1 reads phenotype reproduced by individual siRNAs
TMEM2 #2, call = active
Value of SELO #1 in “call”: active
